Assay results as given in US20160106708A1, “USE OF ANTIOXIDANTS FOR THE TREATMENT OF COGNITIVE AND BEHAVIOURAL DISORDERS IN INDIVIDUALS WITH FRAGILE X SYNDROME” (Servicio Andaluz de Salud, priority 2010, published 2016).

How the values were obtained:
FMR1-KO mice [1] = assay: Raised cross-shaped maze (anxiety); settings: mouse, in vivo
Text: FIG. 2. Percentage permanence time in the open arm of the raised cross-shaped maze in a 5-minute period of time for the different treatments.
This test is used to determine the anxiety of the animal model, under baseline and treated conditions.

FMR1-KO mice [2] = assay: Oxidised glutathione (GSSG, % of GSH) in brain extract; assay type: in vivo, mouse; settings: WT mice, vs the rest of the groups
Text: FIG. 6. Percentage of GSSG with respect to GSH in mouse brain extract. FMR1-KO (n=8): black bars and WT (n=9): white bars. *p<0.05 FMR1-KO vs. WT. # p<0.05 FMR1-KO vs. FMR1-KO. † p<0.05 WT vs. WT.

FMR1-KO mice [3] = assay: Reduced glutathione (GSH) in brain extract; assay type: in vivo, mouse
Text: FIG. 5. Concentration of GSH in mouse brain extract (μmol/g protein). FMR1-KO (n=8): black bars and WT (n=9): white bars. *p<0.05 FMR1-KO vs. WT. # p<0.05 FMR1-KO vs. FMR1-KO. † p<0.05 WT vs. WT.

SMILES: CN1c2ccccc2C(NCCCCCCC(=O)O)c2ccc(Cl)cc2S1(=O)=O (stereo not shown) [Tianeptine]
- Percentage permanence time in the open arm of the raised cross-shaped maze (FMR1-KO mice [1]): greater (p<0.05)
- Percentage of GSSG with respect to GSH in brain extract (FMR1-KO mice [2]): higher percentage
- GSH in brain extract (FMR1-KO mice [3]; FMR1-KO mice, vs saline control): no significant differences
- GSH in brain extract (FMR1-KO mice [3]; WT mice, vs the rest of groups of treated animals): a decrease in the value of GSH
